The values below come from PubChem BioAssay AID1487 (National Center for Advancing Translational Sciences (NCATS), 2009).

The other results are listed elsewhere or left out. The main result of the screen is listed elsewhere. These columns were measured beside it and carry no call. The list favours compounds with an active or inconclusive main result. Words in brackets tell the shape of the fitted curve; partial curves, single points and poor fits give uncertain potencies.

This assay is described as follows: qHTS Assay for Modulators of Lamin A Splicing. Particulars: HeLa LMNA splicing GFP/RFP minigene ratio, 48 h. The gist of the method: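 S3 HeLa stable clones carrying a lamin A-EGFP splicing minigene plus DsRed2 were seeded at 600 cells/well in Opti-MEM with 2% FBS, pin-dosed and incubated 48 h at 37°C. Acumen cytometry (488 nm) gave the GFP/RFP total-intensity ratio.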
For orientation: Quantitative high-throughput screening tests each substance at several concentrations.

Where [1] appears, read: measured here: RFP viability control channel.
Where [2] appears, read: measured here: GFP splicing reporter channel.

As to `COc1ccc(N2CCN(c3nc(-c4ccccc4F)nc4ccccc34)CC2)cc1`, under setting [1], the AC50 (as a rule, the concentration at which the activity in the assay is half-maximal) was 0.178 µM [falling, full curve, poor fit].
Consider `O=[N+]([O-])c1ccc(-n2nnnc2CN2CCOCC2)cc1`, for which, under setting [1], the AC50 is 0.2 µM [falling, full curve, poor fit].
For `Nc1nc(SCc2ccc([N+](=O)[O-])cc2)c2ncn(C3OC(CO)C(O)C3O)c2n1` (stereo unspecified), the concentration at half-maximal activity (AC50) by setting is: under setting [2], 0.0562 µM [falling, full curve]; under setting [1], 0.02 µM [falling, full curve, poor fit].
`CC(=O)c1cccc(NS(=O)(=O)c2cc(OCC(N)=O)c(C)cc2Cl)c1`: under setting [1], the AC50 is 20 µM [rising, single point].
As for `CC(=O)Oc1ccc(Oc2ccc(-c3noc(C)n3)cc2)cc1`, under setting [1], the AC50 was 14.1 µM [rising, partial curve].
As to `O=C(c1cccc2c1-c1ccccc1/C2=N/O)N1CCCCC1`, the half-maximal activity concentration (AC50) by setting is: under setting [2], 14.1 µM [rising, partial curve]; under setting [1], 15.8 µM [rising, single point].
`Cc1cccc(C(=O)NC(=S)Nc2ccc3[nH]c(=O)[nH]c3c2)c1`: under setting [1], the AC50 was 5.62 µM [falling, single point].
Same read-out and setting: under `COc1cccc(N2CC(C(=O)Nc3nnc(SCC(=O)c4ccccc4)s3)CC2=O)c1` (stereo unspecified) stands 2.82 µM [rising, partial curve].
With `Cc1ccccc1CSc1nc2nc(C)c(Cc3ccccc3)c(C)n2n1`, the half-maximal activity concentration (AC50) under setting [2] was 2 µM [falling, partial curve, poor fit].
With `CCN1CCS/C1=C\C=C\C1=[N+](CC)CCS1`, under setting [2], the AC50 is 0.316 µM [falling, partial curve, poor fit].
Take `COc1ccccc1CNc1ncncc1-c1ccccc1Cl`: the half-maximal activity concentration (AC50) under setting [2] is 11.2 µM [falling, partial curve].
Regarding `Cc1cc(C)nc(NC(N)=NC(C)c2ccccc2)n1` (stereo unspecified), the AC50 under setting [2] was 1.12 µM [falling, partial curve, poor fit].
For the compound `Cc1cc(C(=O)NCCc2ccc(Cl)cc2)no1`, the AC50 under setting [1] was 0.0562 µM [falling, full curve, poor fit].
Still for that read-out and setting: the same measure for `O=C(c1ccco1)c1cn(CC(=O)N2CCCc3ccccc32)c2ccccc12`: 14.1 µM [rising, single point].
In the case of `Cc1ccccc1C(=O)N/N=C/c1ccc([N+](=O)[O-])s1`, the concentration at half-maximal activity (AC50) under setting [1] is 8.91 µM [falling, partial curve].
Consider `Cc1cc(NC(=O)CSc2cn(CCNC(=O)c3ccc(Cl)cc3)c3ccccc23)no1`, for which, under setting [1], the AC50 was 12.6 µM [rising, partial curve].
`COc1ccc(OC)c(C(c2nnnn2C2CCCC2)N2CCN(c3ccccc3F)CC2)c1` (stereo unspecified): under setting [1], the AC50 is 8.91 µM [rising, partial curve, poor fit].
As to `CC1CCN(C(=O)CCCOc2ccc(Cl)cc2)CC1`, under setting [1], the half-maximal activity concentration (AC50) was 35.5 µM [rising, single point].
As for `CC(C)(C)C(=O)Nc1ccc2nc(SCC(=O)N3CCCC3)sc2c1`, under setting [2], the AC50 was 0.00794 µM [rising, full curve, poor fit].
Take `Brc1ccc2nc(N3CCCC3)sc2c1`: the AC50 under setting [2] was 1.12 µM [rising, full curve].
For the compound `O=C(NCCc1c[nH]c2ccccc12)C(=O)NCC1OCCN1S(=O)(=O)c1ccc(F)cc1` (stereo unspecified), the half-maximal activity concentration (AC50) under setting [1] was 25.1 µM [rising, single point].
Regarding `CC(C)Oc1ccc(CNC(=O)c2ccc(NC(=O)c3nsc4ccccc34)cc2)cc1`, the half-maximal activity concentration (AC50) under setting [2] was 0.562 µM [rising, full curve, poor fit].
Turning to `Cc1cc(NS(=O)(=O)c2ccc(NC(=O)c3ccoc3C)cc2)nc(C)n1`, the concentration at half-maximal activity (AC50) under setting [1] was 35.5 µM [falling, single point].
Same read-out and setting: the same measure for `CC1CN(Cc2cnc(Cl)s2)CC(C)O1` (stereo unspecified): 0.794 µM [rising, full curve, poor fit].
On to `CCN(CCCNC(=O)c1cc2cc3cc(C)ccc3nc2s1)c1cccc(C)c1`, for which the concentration at half-maximal activity (AC50) under setting [2] was 35.5 µM [falling, single point].
In the case of `NCC1CCC(C(=O)Oc2ccc(CCC(=O)O)cc2)CC1` (stereo unspecified), the half-maximal activity concentration (AC50) reads like this: under setting [2], 0.02 µM [falling, full curve, poor fit]; under setting [1], 12.6 µM [rising, single point].
In the case of `CC(=O)Oc1ccc(Cl)cc1/C=C/c1ccc2ccccc2n1`, the concentration at half-maximal activity (AC50) under setting [1] was 0.447 µM [rising, partial curve, poor fit].
For the compound `CCC(NC(=O)CCl)c1ccc(C)cc1` (stereo unspecified), the half-maximal activity concentration (AC50) under setting [2] is 35.5 µM [rising, single point] and the half-maximal activity concentration (AC50) under setting [1] is 0.0126 µM [rising, full curve, poor fit].
Regarding `COC(=O)c1ccc(CN(c2ccccc2OC)S(=O)(=O)c2cccs2)o1`, the AC50 under setting [2] is 28.2 µM [rising, single point] and the AC50 under setting [1] was 25.1 µM [rising, single point].
As for `Cc1nc(-c2ccccc2)sc1CCNC(=O)c1ccco1`, the AC50 by setting is: under setting [2], 2.24 µM [falling, full curve, poor fit]; under setting [1], 3.98 µM [falling, full curve].
Take `CCCCC(=O)Nc1ncc([N+](=O)[O-])s1`: under setting [1], the AC50 was 3.16 µM [rising, single point].
With `Cc1nnc(SCc2cccc([N+](=O)[O-])c2)s1`, under setting [1], the AC50 was 0.00447 µM [falling, full curve, poor fit].
Consider `CCOC(=O)C1=C(C)C2C3C(=O)N(c4cc(C)ccc4C)C(=O)C3C1(C)C1C(=O)N(c3cc(C)ccc3C)C(=O)C21` (stereo unspecified), for which the AC50 under setting [1] is 11.2 µM [rising, single point].
With `COc1ccccc1NC(=O)CN1CCSc2ccccc21`, under setting [1], the AC50 was 0.631 µM [falling, full curve, poor fit].
Still for that read-out and setting: under `COc1ccc2c(c1)CCc1c(C(=O)NCc3cccnc3)noc1-2` stands 7.08 µM [rising, partial curve]; under `O=C(Nc1ccc(Cl)c(Cl)c1)Nc1ccc(Br)cc1F`, 22.4 µM [rising, single point].
As to `O=C(CSc1cccc[n+]1[O-])C12CC3CC(CC(C3)C1)C2`, under setting [1], the half-maximal activity concentration (AC50) is 20 µM [rising, single point].
Still for that read-out and setting: the same measure for `Cn1c(=O)c(C(=O)COC(=O)c2cc(-c3ccco3)nc3ccccc23)c(N)n(CC2CC2)c1=O`: 12.6 µM [rising, single point].
For the compound `CCCn1c(=O)c(/C(N)=N/O)nn(-c2cccc(C(F)(F)F)c2)c1=O`, the AC50 under setting [2] was 2 µM [rising, partial curve].
As for `CCOc1ccc(OCC)c(NC(=O)CCn2cccc2)c1`, the concentration at half-maximal activity (AC50) under setting [1] was 31.6 µM [rising, single point].
Turning to `CC(C)/C=C1\CC/C(=C\c2ccc(N(C)C)cc2)C1=O`, the concentration at half-maximal activity (AC50) under setting [1] is 28.2 µM [rising, single point].
For `COc1ccccc1C(=O)NNC(=O)c1ccc(Cl)cc1`, the concentration at half-maximal activity (AC50) was 14.1 µM [falling, partial curve, poor fit] under setting [2] and 7.94 µM [falling, partial curve, poor fit] under setting [1].
Turning to `COC(=O)/C=C/C(=O)N1CCN(c2cccc(Cl)c2)CC1`, the AC50 under setting [2] was 0.1 µM [falling, partial curve, poor fit].
Turning to `NC(=O)N/N=C/c1ccc([N+](=O)[O-])o1`, under setting [1], the AC50 is 0.0112 µM [rising, full curve, poor fit].
Regarding `CCOc1c(Cl)cc(CNCc2ccncc2)cc1OC`, the AC50 under setting [2] is 0.0282 µM [falling, full curve, poor fit].
For the compound `CN(C)S(=O)(=O)c1cc(C(=O)NCc2ccccc2)c(Cl)cc1Cl`, under setting [2], the AC50 is 11.2 µM [falling, partial curve].
`O=C(CSc1nccn1-c1ccc(Cl)cc1)Nc1nc2ccccc2s1`: the AC50 under setting [2] is 1.58 µM [falling, partial curve].
For the compound `c1ccc2c(N3CCCCCC3)nc(-c3ccncc3)nc2c1`, the AC50 reads like this: under setting [2], 25.1 µM [rising, single point]; under setting [1], 25.1 µM [rising, single point].
Regarding `CCOc1ccc(/C=C2\SC(=S)N(Nc3ccccc3)C2=O)cc1OC`, the AC50 under setting [1] is 0.0562 µM [rising, full curve, poor fit].
Turning to `CC(=O)Cc1nsc(NC(=O)c2ccc(-c3ccccc3Cl)o2)n1`, the half-maximal activity concentration (AC50) under setting [1] was 20 µM [rising, single point].
On to `O=C(Nc1cccc([N+](=O)[O-])c1)Nc1ccc2c(c1)OCCO2`, for which the half-maximal activity concentration (AC50) under setting [1] was 3.98 µM [falling, full curve, poor fit].
Same read-out and setting: under `COc1ccc(-c2nc(SC(CC(=O)NCc3ccccc3)c3ccc(OC)c(OC)c3)n[nH]2)cc1` (stereo unspecified) stands 3.16 µM [rising, partial curve, poor fit]; under `Clc1cccc(-c2cc3nc4c(c(N5CCOCC5)n3n2)CCCC4)c1`, 35.5 µM [rising, single point]; under `C=CCNC(=S)N1CCN(c2cccc(C(F)(F)F)c2)CC1`, 31.6 µM [rising, single point].
With `Cc1ccc2nc(/C(C#N)=C/c3cn[nH]c3-c3ccc(F)cc3)[nH]c2c1`, the AC50 under setting [2] is 35.5 µM [falling, single point] and the concentration at half-maximal activity (AC50) under setting [1] was 35.5 µM [falling, single point].
Turning to `Cc1ccc(S(=O)(=O)NC(C)C(=O)Nc2ccccc2C(=O)N2CCCC2)cc1` (stereo unspecified), the AC50 under setting [1] is 0.2 µM [rising, full curve, poor fit].
Regarding `CCc1ccc(CN2CCN(C(=O)c3cccc(OC)c3OC)CC2)cc1`, the AC50 under setting [1] is 7.94 µM [rising, partial curve].
In the case of `Cc1cc(C)cc(NC(=O)COc2ccc3c(C)c(Cc4ccccc4)c(=O)oc3c2)c1`, the concentration at half-maximal activity (AC50) was 5.01 µM [rising, partial curve] under setting [2] and 5.62 µM [rising, full curve] under setting [1].
Turning to `O=C(N1CCCCC1)C1(c2ccccc2)CCOCC1`, the AC50 under setting [1] is 4.47 µM [falling, partial curve, poor fit].
For the compound `O=C(Nc1c(Cl)cccc1Cl)c1ccc(-c2ccccc2)cc1`, under setting [1], the AC50 is 11.2 µM [falling, partial curve].
As for `OCCN1CCN(c2nc3ccccc3nc2-c2ccccc2)CC1`, the AC50 under setting [2] was 35.5 µM [falling, single point].
